One compound from PubChem BioAssay AID1918944 (Molecular Pharmacology Branch, DTP, NCI, 2023) can be followed below.

For the assay, the system named is 786-0 complex spheroid viability. Briefly: Anticancer human tumor 786-0 cell line growth inhibition.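 Also: spheroids exposed to agents for seven days before readout.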 Particulars: hits give low values. The source says: Multicellular complex tumor spheroid response to LSD1 Inhibitor Iadademstat in combination with a variety of drugs and investigational agents in selected tumor cell lines
The current study was undertaken to assess response to LSD1 inhibitors in combination with standard-of-care drugs and investigational agents in solid tumor complex spheroid models as well as in the K-562 leukemia. Complex spheroids include a stromal component modeled by human endothelial cells (HUVEC) and fibroblasts modeled by human mesenchymal stem cells (MSCs). The concentration ranges selected for each drug and investigational agent were based upon clinically achievable concentrations if the clinical Cmax of the agent was known.
Compounds. The drugs and investigational agents used in this study are listed on Table 1. All of the agents used, including staurosporine (NSC755774) and gemcitabine (NSC613327), were obtained from the Developmental Therapeutics Program, NCI. FDA-approved anticancer drugs are available from the NCI at http://dtp.nci.nih.gov/branches/dscb/oncology_drugset_explanation.html. Drugs and investigational agents were >95% pure by proton nuclear magnetic resonance (NMR) and liquid chromatography/mass spectrometry (LC/MS). […] If the clinical Cmax for an agent had not been determined, the highest concentration tested was 10 microM. […]

Where “and” joins values, the source holds several entries; their conditions need not be identical. Identical values can stand only once. Further values from the same series stand in other lists.

As a reminder, the viability, T/C is the ratio of treated to control. Take `NC1CCC(NC2CC2c2ccccc2)CC1` (configuration not stated): the viability, T/C is 118% [middle of 22 runs] (compound 0.316 µM); 80.6% and 82% (compound 10 µM).
